Results of single-concentration screens

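Assay of Toxoplasma gondii numbers, read through their beta-galactosidase reporter with a colour substrate. Compounds at 10 µM. The record gives no direction; the compounds picked for IC50 retests had high values, so higher reads as fewer parasites. Size under these conditions: about 67,000 compounds, about 260 of them at 50% or above in at least one test.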

Each number is a percent effect as filed. The controls that fix the scale are not given in the record; negative values are as filed. This is an unselected part of the compounds tested.

structure: Cc1nnc(NC(=O)CN2CCCC2c2noc(C(C)C)n2)s1 (stereo not given)
percent effect: 5.212

structure: COc1cc(CNCc2c(C)nn(C)c2N(C)C)ccc1C
percent effect: -2.01

structure: O=C(CC1=CCCCC1)Nc1ncn(CC(=O)N2CCCCCC2)n1
percent effect: 6.876

structure: O=C(CC1CCCO1)NS(=O)(=O)Cc1cc(-c2ccccc2)no1 (stereo not given)
percent effect: 27.57

structure: Cc1ccnn1CC(=O)Nc1cc(-c2ccncc2)[nH]n1
percent effect: 2.526

structure: O=C(O)C(F)(F)F.[H][C@@]12C[C@H](C(=O)NC)CN(Cc3cccc4ccccc34)[C@]1([H])CCO2
percent effect: -11.31

structure: CCN1CC(CN(C)c2cc(C)nc(N)n2)Oc2ccccc21 (stereo not given)
percent effect: 21.98

structure: CCC(=O)c1ccc(OCC(=O)NC(C)c2nnn[nH]2)cc1 (stereo not given)
percent effect: 6.019

structure: COC(=O)NCC(=O)N1CCC(Oc2cccc(C)c2)CC1
percent effect: 2.194

structure: [H][C@]12CC[C@]([H])(CN(CC(=O)N(C)C)C1)N(Cc1ccccc1OCCO)C2
percent effect: 4.311

structure: CCCc1cc(C(=O)N2Cc3ccccc3C2)[nH]n1
percent effect: -11.02

structure: c1ccc(-n2nnnc2NCc2ccc3c(c2)OCO3)cc1
percent effect: 19.55

structure: CCOc1ccc(C(=O)CCC(=O)N(C)Cc2cnccn2)cc1C
percent effect: -0.6698

structure: O=C(O)C(F)(F)F.O=C(O)C(F)(F)F.O=C(O)C(F)(F)F.[H][C@@]12CN(Cc3nccs3)CCC[C@]1(C(=O)OCC)CN(CCN(C)C)C2
percent effect: 1.885

structure: NC1(C(=O)N2CCC(c3cc(-c4ccccc4Cl)n[nH]3)CC2)CCC1
percent effect: -6.561

structure: COc1cccc(CN2CCN(c3cccc(C(C)C)n3)CC2)c1F
percent effect: 24.73

structure: Cc1ccc(-c2nc(C(=O)N3CCCCC3CNS(C)(=O)=O)cs2)cc1 (stereo not given)
percent effect: 2.194

structure: CC(C)Cc1nc(CSCC(=O)N2CCC(C)CC2)no1
percent effect: 9.541

structure: COc1cc2c(cc1OC)C(=O)C(Sc1nnc(C)o1)C2 (stereo not given)
percent effect: -22.27

structure: COCC(=O)N1CCC2(CC1)c1ccccc1[C@@H](N1CCSCC1)[C@@H]2O
percent effect: -6.435

structure: CCSCC(C)NCc1nncn1C1CCCCC1 (stereo not given)
percent effect: 4.536

structure: O=C(c1cc(Cn2cnc3ccccc32)on1)N1CCOCC1
percent effect: 6.441

structure: Cc1ccccc1CNC(=O)Cn1nc(-c2ccc(F)cc2)oc1=O
percent effect: -40.43

structure: CN1CCCCC1c1ncc2c(n1)CCN(Cc1ccc(Cl)c(F)c1)C2 (stereo not given)
percent effect: 2.536

structure: Cn1cc(CCCNC(=O)NC2CCN(CC(F)(F)F)C2=O)cn1 (stereo not given)
percent effect: 2.434

structure: CN1CCN(CC2(O)CCCN(S(=O)(=O)c3cn[nH]c3)CC2)CC1 (stereo not given)
percent effect: 8.2

structure: O=C(CC1CCCO1)NCCCC(=O)Nc1ccc(Cl)cc1 (stereo not given)
percent effect: 5.607

structure: CC(NC(=O)c1sccc1C1CC1)c1ccc2c(c1)CC(=O)N2 (stereo not given)
percent effect: 0.7002

structure: CNc1nc(N2CCN(CC=C(C)C)C(CCO)C2)nc2c1CCC2 (stereo not given)
percent effect: 0.2378

structure: CCN(Cc1nccn1C)C(=O)c1ccc(NCc2ccc(C)o2)nc1
percent effect: -47.33

structure: Cn1cc(C2(C)CN(Cc3ccc(Cl)c(F)c3)CCO2)cn1 (stereo not given)
percent effect: 2.835

structure: Clc1cccc(CNC2CCN(CCc3ccncc3)CC2)c1
percent effect: 11.03

structure: CCOCC1CN(C(=O)N(C)C)Cc2nn(C)cc21 (stereo not given)
percent effect: 5.556

structure: [H][C@@]12CS(=O)(=O)C[C@]1([H])N(C(=O)c1ccc(C)cc1OC)CCN2CCOC
percent effect: -12.12

structure: CC(C)c1nnc(NC(=O)N2CCN(C)CC2c2ccccc2)s1 (stereo not given)
percent effect: -2.968

structure: Cc1cccc(N2CC3(CCN(S(=O)(=O)C4CC4)C3)C2)n1.O=C(O)C(F)(F)F
percent effect: -5.434

structure: O=C(CN1CCNCC1)NCc1ccc2sccc2c1
percent effect: -22.45

structure: Cn1nc(CN2CCCC2)c2c1CN(C(=O)c1cnccn1)CC2
percent effect: 3.493

structure: Cc1csc2c(C3CCCN(C(=O)CCn4cncn4)C3)nc(C)n12 (stereo not given)
percent effect: -10.49

structure: COCc1cn(C2CCN(CCC(C)c3ccccc3)CC2)nn1 (stereo not given)
percent effect: -10.64

structure: CCc1[nH]c(C2(N)CCCCC2)nc(=O)c1C
percent effect: 11.76

structure: COCCN(Cc1ccoc1)S(=O)(=O)c1cccc(C(F)(F)F)c1
percent effect: 10.67

structure: N[C@H]1CN(C(=O)c2ccccc2Oc2ccccc2)C[C@@H]1C1CC1
percent effect: -11.88

Source: ChEMBL document CHEMBL3988442, “University of Dundee, Small-Polar-MMV Screening Library” (2021).